Test [1] deals with CTB4a^KMXBG-YFP^N (rice (Oryza sativa ssp. japonica cv. KMXBG)). Put plainly: split reporter; bimolecular fluorescence complementation in Nicotiana benthamiana; YFP^N and YFP^C fusions; signal at chloroplasts.
In test [2] the target is CTB4a^Towada-YFP^N (rice (Oryza sativa ssp. japonica cv. Towada)). Described as above.

No constants are given. Whether binding was seen depends on the method and setting. In cells and extracts the contact can be indirect. Binding can be weak; no strength is given. Tags and fused reporters may be left off the sequences shown.

B1: AtpB-YFP^C (protein, UniProt P12085 1-498)
chain: MRTNPTTSRPGVSTIEEKSTGRIDQIIGPVLDVTFPPGKLPYIYNALVVKSRDTDGKQINVTCEVQQLLGNNRVRAVAMSATDGLMRGMEVIDTGAPLSVPVGGATLGRIFNVLGEPVDNLGPVDTSATFPIHRSAPAFIELDTKLSIFETGIKVVDLLAPYRRGGKIGLFGGAGVGKTVLIMELINNIAKAHGGVSVFGGVGERTREGNDLYMEMKESGVINEKNLEESKVALVYGQMNEPPGARMRVGLTALTMAEYFRDVNKQDVLLFIDNIFRFVQAGSEVSALLGRMPSAVGYQPTLSTEMGSLQERITSTKKGSITSIQAVYVPADDLTDPAPATTFAHLDATTVLSRGLASKGIYPAVDPLDSTSTMLQPRIVGNEHYETAQRVKQTLQRYKELQDIIAILGLDELSEEDRLTVARARKIERFLSQPFFVAEVFTGSPGKYVGLAETIRGFQLILSGELDGLPEQAFYLVGNIDEASTKAINLEEENKLKK
Consider B1, for which the binding entry in test [1] and in test [2] was “binds” throughout.
